PubChem BioAssay AID1224830 – NIAID – 2016
Shown is one part, drawn at random, of about 18,000 reagents tested. Over the whole deposit, about 2,900 (16%) got an active call. 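Calls are made per well; low scores hint the gene aids the LPS response, high scores that it dampens it.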 Unmarked entries are inactive. Repeated entries: four replicate wells of each siRNA pool.

- Purpose: 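Regulators of TLR4 signalling towards TNF-alpha in macrophage-like cells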 (primary screen)
- Cell system: human THP-1 monocytic leukaemia cells, TNF dual-luciferase reporter clone, PMA-differentiated to macrophage-like cells
- Reagent: siRNA pool against human genes, 50 nM
- Time to read-out: LPS for 4 h, given about 3 days after siRNA transfection
- Conditions: bacterial LPS (TLR4 ligand), 10 ng/ml
- Measured: 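TNF firefly reporter luminescence divided by renilla, normalised to the plate median, then turned into a robust z-score for each replicate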
- Direction: TNF reporter robust z-score: higher = stronger TNF reporter response to LPS
- Hit rule: 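Each well counts as active if its z-score is over 2.8 or under -1.5; controls are left without a call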

gene symbol,TNF reporter robust z-score
CKMT2,-0.4
CKMT2,-0.96
CKMT2,-0.52
CKMT2,-0.26
SF3B3,2.39
SF3B3,1.23
SF3B3,2.21
SF3B3,0.52
COL17A1,-1.43
COL17A1,-1.14
COL17A1,-1.37
COL17A1,-1.64 (active)
POLE2,0.51
POLE2,1.4
POLE2,0.26
POLE2,-0.26
SOX30,1.31
SOX30,1.73
SOX30,1.44
SAMD14,0.97
SAMD14,1.67
SAMD14,1.13
SAMD14,1.1
ATP2B1,1.09
ATP2B1,1.48
ATP2B1,1.77
ATP2B1,0.54
R3HDM4,0.07
R3HDM4,0.8
R3HDM4,-0.36
R3HDM4,0.31
DLL4,0.15
DLL4,0.4
DLL4,-0.3
DLL4,0.7
CRBN,1.89
CRBN,1.53
CRBN,0.9
CRBN,0.74
SPTSSA,0.63
SPTSSA,-0.44
SPTSSA,-0.52
SPTSSA,0.12
CELSR3,-0.32
CELSR3,-0.97
CELSR3,-0.68
CELSR3,-0.71
ZNF235,-0.7
ZNF235,-0.66
ZNF235,-0.64
ZNF235,-0.1
UGT1A6,2.47
UGT1A6,0.8
UGT1A6,0.57
UGT1A6,0.48
CRLF2,2.99 (active)
CRLF2,-0.27
CRLF2,0.73
CRLF2,0.18
RNF39,1.62
RNF39,1.49
RNF39,-0.92
RNF39,-0.84
HDAC1,-0.3
HDAC1,-0.2
HDAC1,-0.52
HDAC1,0.1
BEND4,-0.22
BEND4,0.28
BEND4,0.1
BEND4,1.2
C2orf78,-0.9
C2orf78,-0.16
C2orf78,0.73
C2orf78,1.5
